In patent US20050136043A1, “TGFbeta signaling inhibitors” (Ludwig Institute for Cancer Research, priority 2003, published 2005):

Target: GST-TβRI
Settings: read-out: IC50 GST-TβRI in vivo; in vivo (cells)

For `C[S+]([O-])c1ccc(-c2nc(-c3ccncc3)c(-c3ccc(F)cc3)[nH]2)cc1` (stereo not shown) [SB203580], which IC50 is on record?
The IC50 was 10 µM.
